Results as given in article PMC4519142.

T1: PDZD7 (bait of the tandem affinity purification) (UniProt Q9H5P4)
T1 sequence: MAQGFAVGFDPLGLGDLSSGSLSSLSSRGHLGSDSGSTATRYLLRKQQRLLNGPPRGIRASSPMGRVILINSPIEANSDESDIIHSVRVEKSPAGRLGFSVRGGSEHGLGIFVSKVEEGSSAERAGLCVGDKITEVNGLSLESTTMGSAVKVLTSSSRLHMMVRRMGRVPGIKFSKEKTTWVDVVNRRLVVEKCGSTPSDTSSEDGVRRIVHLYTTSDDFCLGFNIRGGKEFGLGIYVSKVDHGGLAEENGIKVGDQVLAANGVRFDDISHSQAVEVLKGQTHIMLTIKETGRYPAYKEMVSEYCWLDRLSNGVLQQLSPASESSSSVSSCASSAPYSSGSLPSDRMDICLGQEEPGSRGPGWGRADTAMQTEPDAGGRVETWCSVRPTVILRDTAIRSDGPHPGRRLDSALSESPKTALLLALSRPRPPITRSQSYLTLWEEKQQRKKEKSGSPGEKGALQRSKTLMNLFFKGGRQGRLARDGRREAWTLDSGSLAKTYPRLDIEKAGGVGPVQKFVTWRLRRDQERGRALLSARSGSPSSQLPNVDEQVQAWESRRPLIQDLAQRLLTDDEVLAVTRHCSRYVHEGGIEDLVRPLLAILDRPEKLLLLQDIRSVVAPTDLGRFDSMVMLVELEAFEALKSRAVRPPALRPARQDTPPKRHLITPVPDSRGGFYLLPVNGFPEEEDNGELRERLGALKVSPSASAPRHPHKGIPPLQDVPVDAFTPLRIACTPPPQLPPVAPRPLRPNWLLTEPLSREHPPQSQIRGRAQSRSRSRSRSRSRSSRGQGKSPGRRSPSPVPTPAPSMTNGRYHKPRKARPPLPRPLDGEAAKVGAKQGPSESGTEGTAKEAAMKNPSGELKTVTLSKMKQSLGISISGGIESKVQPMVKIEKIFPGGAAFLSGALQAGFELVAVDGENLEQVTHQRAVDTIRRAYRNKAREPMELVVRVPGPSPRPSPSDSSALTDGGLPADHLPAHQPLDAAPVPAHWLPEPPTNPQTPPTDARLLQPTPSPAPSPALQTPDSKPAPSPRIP


Target: T1, PDZD7 (bait of the tandem affinity purification)
Assay: affinity purification with mass spectrometry; tandem affinity purification (TAP) with the USH protein as bait; cells, conditions and way of detection not told

| binding | Binder |
| --- | --- |
| binds | IFT25 (protein, UniProt Q9Y547 1-144) MRKIDLCLSSEGSEVILATSSDEKHPPENIIDGNPETFWTTTGMFPQEFIICFHKHVRIERLVIQSYFVQTLKIEKSTSKEPVDFEQWIEKDLVHTEGQLQNEEIVAHDGSATYLRFIIVSAFDHFASVHSVSAEGTVVSNLSS |
| binds | IFT27 (protein, UniProt Q9BW83 1-186) MVKLAAKCILAGDPAVGKTALAQIFRSDGAHFQKSYTLTTGMDLVVKTVPVPDTGDSVELFIFDSAGKELFSEMLDKLWESPNVLCLVYDVTNEESFNNCSKWLEKARSQAPGISLPGVLVGNKTDLAGRRAVDSAEARAWALGQGLECFETSVKEMENFEAPFHCLAKQFHQLYREKVEVFRALA |

Results are given in words; binding and its absence hold for the method and conditions named. Binding seen in cells or lysates may run through a third protein. A yes stands for co-enrichment or nearness to the bait. Other partners may have been found.
